Publication PMC13070491, “Single-nucleus transcriptomics, pharmacokinetics, and pharmacodynamics of CDK4/6 and mTOR inhibition in a Phase 0/1 trial of recurrent high-grade glioma” (Neuro-Oncology, 2025)

Test system: GB126, GB239 and GB86 patient-derived cell lines
Experiment: In vitro single-cell RNA sequencing, analyses across the cell lines (pseudobulk differential gene expression, GSEA, non-cycling cells)
Type: cell-based, human
Conditions: ribociclib-treated vs DMSO
Description: Patient-derived glioma stem cell lines (GSCs; GB126, GB86, and GB239) were established from resected GBM tumor tissue. Cell lines were genetically profiled for mutations and copy number aberrations using the IvySeq custom gene panel. […] GB239 was derived from a tumor sample included in this Phase 0 trial (tumor sample: 100-0039). All human GSCs were cultured as described previously.[12]
Following the fifth day of drug exposure, cells were harvested, cryopreserved to be processed at a later point, or immediately processed for single-cell RNA sequencing (10x Genomics, 3’ version 3). The single-cell RNA sequencing data were then processed via cellranger count and Seurat. Briefly, cells were filtered out based on the following criteria: minimum number of genes detected >500 and <10 000 with a maximum percentage of mitochondrial genes set to 10%. Statistical assessment was made between the malignant proportions of each cell state using a 2-sided paired t-test.
Descriptive statistics of the clinical data are included in Table 1. Comparisons between groups were conducted using a 2-sided or paired 2-sided t-test, where indicated. P < .05 was considered significant. Multiple hypothesis test corrections (ie, false discovery rate correction) were applied for snRNAseq pseudobulk differential expression analysis.

SMILES: CN(C)C(=O)c1cc2cnc(Nc3ccc(N4CCNCC4)cn3)nc2n1C1CCCC1 [Ribociclib, ribociclib]
- programs enriched among upregulated genes, gene set enrichment analysis: inflammatory response and epithelial-to-mesenchymal transition
- downregulated genes (number), pseudobulk differential gene expression (adj. P < .05, abs(log2FC) > 1): 582
